Test results from patent US20190275197A1.
No constants are given. Whether binding was seen depends on the method and setting. Some results given as binding are weak or reduced against the parent protein; the word gives no strength.

By UniProt entry, the sequences of proteins in these tests, tags left out. Where a name states a change or a piece, a line headed by the entry shows the natural chain unless it says otherwise.
UniProt P02671: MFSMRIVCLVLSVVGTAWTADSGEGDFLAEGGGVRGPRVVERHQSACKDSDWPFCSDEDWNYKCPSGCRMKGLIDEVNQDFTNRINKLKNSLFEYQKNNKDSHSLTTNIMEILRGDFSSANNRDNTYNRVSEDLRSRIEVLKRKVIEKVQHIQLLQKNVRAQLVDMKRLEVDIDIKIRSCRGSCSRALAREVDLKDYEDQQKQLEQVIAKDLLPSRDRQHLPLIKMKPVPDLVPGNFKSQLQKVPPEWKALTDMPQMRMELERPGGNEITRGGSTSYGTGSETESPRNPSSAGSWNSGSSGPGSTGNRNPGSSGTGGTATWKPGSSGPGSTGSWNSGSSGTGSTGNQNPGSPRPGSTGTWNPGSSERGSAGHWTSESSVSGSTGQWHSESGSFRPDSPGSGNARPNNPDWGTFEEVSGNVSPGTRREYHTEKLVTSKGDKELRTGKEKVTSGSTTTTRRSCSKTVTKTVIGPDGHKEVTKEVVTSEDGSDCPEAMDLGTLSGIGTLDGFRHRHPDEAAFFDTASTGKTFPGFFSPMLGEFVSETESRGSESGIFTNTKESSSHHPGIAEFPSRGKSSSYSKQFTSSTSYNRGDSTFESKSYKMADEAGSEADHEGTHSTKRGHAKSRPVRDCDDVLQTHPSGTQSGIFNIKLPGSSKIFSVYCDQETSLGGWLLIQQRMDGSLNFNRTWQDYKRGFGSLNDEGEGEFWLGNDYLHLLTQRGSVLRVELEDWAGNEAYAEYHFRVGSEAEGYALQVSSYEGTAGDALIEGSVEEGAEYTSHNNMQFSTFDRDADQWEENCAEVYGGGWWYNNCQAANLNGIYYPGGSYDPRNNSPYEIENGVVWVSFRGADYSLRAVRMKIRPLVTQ

Target: fibrin matrix (UniProt P02671)
Assay: retention assay of fibrin matrices, unbound peptide measured by PTH ELISA

binding: binds
Binder: NQEQVSPLYKNRSVSEIQLMHNLGKHLNSMERVEWLRKKLQDVHNF [TGplPTH1-34]
